Data taken from the supplement of paper PMC10849652.
The other results are listed elsewhere or left out.

Amino acid sequences for entries named in this document (tags omitted). A change or cut given only in a name is not applied to a line headed by its entry.
UniProt Q3ZAQ7: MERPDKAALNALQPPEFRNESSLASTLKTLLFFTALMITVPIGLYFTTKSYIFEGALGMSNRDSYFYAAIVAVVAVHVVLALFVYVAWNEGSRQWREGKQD
UniProt Q96S15: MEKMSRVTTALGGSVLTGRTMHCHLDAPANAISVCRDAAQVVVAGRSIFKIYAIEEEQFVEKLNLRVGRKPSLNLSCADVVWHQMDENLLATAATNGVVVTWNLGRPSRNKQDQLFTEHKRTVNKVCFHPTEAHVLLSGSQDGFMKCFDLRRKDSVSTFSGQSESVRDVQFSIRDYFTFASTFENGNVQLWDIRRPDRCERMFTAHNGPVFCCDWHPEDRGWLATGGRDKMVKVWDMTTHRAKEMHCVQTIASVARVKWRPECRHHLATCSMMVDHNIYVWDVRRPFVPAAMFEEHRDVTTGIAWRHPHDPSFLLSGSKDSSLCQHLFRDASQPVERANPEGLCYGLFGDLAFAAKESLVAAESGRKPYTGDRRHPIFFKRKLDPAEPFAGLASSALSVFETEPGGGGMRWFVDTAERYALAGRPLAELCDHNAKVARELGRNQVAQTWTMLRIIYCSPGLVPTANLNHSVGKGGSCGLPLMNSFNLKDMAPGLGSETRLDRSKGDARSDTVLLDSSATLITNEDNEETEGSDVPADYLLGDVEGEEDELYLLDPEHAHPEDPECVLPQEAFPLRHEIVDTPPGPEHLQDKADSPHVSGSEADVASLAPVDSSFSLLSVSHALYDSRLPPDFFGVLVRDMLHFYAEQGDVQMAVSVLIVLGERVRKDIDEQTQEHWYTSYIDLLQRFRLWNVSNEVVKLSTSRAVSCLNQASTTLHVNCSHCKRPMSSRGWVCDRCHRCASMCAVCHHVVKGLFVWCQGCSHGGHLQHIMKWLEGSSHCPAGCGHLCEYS
UniProt A4D1P6: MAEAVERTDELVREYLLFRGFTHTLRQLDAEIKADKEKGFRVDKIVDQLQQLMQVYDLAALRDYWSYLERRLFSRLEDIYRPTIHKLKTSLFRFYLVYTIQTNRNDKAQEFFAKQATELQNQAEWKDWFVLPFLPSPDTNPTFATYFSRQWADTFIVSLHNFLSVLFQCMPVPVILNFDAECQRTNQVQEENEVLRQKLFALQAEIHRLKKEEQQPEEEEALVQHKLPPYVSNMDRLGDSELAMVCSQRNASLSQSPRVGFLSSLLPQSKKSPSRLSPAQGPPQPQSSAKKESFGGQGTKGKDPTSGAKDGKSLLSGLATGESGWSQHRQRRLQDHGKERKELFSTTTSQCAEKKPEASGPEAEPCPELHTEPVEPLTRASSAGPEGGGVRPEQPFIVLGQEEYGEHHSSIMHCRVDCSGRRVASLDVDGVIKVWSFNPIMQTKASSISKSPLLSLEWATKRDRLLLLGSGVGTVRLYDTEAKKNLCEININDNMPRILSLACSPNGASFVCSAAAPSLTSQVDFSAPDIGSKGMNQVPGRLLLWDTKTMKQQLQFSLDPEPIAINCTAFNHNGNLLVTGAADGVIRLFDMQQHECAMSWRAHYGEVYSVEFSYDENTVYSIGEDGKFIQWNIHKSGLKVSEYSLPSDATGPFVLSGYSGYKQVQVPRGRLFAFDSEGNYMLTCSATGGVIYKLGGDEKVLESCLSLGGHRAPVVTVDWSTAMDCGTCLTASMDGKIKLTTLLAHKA
UniProt Q9BRX9: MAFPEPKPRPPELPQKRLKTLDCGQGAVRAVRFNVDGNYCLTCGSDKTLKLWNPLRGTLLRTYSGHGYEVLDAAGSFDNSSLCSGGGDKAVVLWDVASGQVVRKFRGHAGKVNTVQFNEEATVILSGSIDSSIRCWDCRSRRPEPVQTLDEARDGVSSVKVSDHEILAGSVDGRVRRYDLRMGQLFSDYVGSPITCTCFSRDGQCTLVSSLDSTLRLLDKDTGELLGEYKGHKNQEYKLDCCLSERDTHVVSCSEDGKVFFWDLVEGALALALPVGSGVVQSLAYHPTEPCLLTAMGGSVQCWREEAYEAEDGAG
UniProt Q9Y4P8: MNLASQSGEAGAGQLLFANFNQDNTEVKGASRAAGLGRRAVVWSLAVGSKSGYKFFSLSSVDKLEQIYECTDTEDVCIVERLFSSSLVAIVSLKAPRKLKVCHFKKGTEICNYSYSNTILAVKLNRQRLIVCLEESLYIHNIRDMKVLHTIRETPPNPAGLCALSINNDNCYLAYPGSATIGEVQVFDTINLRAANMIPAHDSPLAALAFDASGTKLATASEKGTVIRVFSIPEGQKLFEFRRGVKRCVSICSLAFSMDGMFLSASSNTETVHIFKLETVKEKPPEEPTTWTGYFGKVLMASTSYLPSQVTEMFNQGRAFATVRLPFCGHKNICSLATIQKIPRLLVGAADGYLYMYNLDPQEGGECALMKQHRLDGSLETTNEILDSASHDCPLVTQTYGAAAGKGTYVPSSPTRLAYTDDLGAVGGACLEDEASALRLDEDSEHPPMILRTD
UniProt Q9NX94: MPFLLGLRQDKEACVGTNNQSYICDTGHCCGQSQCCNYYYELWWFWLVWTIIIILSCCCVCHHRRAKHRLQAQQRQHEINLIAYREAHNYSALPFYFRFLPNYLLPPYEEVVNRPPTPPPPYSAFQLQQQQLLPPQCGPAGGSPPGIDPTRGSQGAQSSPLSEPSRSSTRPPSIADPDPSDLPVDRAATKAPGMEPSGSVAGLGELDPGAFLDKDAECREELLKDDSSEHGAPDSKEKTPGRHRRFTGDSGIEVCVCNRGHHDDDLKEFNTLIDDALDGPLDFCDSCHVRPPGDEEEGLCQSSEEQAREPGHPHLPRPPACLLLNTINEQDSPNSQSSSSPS
UniProt Q9H7M9, whole entry, looked up: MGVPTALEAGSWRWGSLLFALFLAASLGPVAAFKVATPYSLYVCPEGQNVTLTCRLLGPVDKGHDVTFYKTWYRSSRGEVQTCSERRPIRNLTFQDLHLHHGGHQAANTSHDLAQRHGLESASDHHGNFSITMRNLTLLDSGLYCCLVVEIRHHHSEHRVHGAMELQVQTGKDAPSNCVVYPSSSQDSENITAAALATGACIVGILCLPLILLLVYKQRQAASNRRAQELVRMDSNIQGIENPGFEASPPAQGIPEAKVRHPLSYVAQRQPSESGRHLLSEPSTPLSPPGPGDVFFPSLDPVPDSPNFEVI
UniProt O00308: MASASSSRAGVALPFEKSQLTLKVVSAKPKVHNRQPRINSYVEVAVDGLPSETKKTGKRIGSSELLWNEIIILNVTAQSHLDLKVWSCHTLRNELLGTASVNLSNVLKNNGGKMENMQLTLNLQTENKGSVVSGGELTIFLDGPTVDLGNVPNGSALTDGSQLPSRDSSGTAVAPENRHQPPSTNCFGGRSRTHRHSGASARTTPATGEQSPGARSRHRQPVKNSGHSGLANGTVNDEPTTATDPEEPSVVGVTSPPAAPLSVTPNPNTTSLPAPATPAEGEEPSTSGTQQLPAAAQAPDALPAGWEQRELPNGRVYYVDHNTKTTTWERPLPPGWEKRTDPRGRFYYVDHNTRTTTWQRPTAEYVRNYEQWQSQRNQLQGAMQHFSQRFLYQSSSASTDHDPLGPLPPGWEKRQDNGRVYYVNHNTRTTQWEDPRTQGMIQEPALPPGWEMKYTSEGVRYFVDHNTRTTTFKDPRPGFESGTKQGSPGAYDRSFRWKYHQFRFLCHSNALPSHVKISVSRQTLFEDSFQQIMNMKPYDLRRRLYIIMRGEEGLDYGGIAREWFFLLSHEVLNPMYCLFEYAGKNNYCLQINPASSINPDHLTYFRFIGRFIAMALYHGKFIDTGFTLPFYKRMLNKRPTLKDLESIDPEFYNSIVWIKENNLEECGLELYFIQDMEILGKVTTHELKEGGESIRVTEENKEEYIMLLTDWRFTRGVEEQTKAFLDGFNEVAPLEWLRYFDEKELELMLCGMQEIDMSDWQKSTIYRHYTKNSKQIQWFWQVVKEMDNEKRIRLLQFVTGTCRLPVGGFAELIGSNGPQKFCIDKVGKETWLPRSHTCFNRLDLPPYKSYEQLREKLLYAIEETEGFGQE
UniProt Q9H967: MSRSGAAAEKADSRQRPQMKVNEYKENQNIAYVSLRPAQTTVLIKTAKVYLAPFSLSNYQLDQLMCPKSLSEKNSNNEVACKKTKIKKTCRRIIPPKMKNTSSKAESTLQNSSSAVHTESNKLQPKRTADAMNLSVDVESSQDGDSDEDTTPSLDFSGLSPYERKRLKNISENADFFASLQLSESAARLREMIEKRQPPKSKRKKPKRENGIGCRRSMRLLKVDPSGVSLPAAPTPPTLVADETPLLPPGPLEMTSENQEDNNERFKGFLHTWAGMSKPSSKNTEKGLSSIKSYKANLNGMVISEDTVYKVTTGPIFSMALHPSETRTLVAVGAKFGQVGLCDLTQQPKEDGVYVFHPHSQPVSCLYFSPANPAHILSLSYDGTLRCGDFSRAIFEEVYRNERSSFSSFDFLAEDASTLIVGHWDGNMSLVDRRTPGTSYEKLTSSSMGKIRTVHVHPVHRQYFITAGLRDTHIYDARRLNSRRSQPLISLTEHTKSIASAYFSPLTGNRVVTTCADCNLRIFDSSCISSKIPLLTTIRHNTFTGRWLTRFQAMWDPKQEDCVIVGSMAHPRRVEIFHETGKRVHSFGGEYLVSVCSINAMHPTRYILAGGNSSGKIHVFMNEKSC
UniProt Q9H867: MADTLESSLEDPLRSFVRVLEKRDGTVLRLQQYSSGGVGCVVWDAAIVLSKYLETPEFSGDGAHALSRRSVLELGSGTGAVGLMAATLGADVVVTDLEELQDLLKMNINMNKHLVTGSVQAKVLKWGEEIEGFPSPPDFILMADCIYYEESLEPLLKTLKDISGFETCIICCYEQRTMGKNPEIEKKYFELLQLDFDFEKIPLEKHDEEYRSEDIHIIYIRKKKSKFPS
UniProt Q9P1Q0: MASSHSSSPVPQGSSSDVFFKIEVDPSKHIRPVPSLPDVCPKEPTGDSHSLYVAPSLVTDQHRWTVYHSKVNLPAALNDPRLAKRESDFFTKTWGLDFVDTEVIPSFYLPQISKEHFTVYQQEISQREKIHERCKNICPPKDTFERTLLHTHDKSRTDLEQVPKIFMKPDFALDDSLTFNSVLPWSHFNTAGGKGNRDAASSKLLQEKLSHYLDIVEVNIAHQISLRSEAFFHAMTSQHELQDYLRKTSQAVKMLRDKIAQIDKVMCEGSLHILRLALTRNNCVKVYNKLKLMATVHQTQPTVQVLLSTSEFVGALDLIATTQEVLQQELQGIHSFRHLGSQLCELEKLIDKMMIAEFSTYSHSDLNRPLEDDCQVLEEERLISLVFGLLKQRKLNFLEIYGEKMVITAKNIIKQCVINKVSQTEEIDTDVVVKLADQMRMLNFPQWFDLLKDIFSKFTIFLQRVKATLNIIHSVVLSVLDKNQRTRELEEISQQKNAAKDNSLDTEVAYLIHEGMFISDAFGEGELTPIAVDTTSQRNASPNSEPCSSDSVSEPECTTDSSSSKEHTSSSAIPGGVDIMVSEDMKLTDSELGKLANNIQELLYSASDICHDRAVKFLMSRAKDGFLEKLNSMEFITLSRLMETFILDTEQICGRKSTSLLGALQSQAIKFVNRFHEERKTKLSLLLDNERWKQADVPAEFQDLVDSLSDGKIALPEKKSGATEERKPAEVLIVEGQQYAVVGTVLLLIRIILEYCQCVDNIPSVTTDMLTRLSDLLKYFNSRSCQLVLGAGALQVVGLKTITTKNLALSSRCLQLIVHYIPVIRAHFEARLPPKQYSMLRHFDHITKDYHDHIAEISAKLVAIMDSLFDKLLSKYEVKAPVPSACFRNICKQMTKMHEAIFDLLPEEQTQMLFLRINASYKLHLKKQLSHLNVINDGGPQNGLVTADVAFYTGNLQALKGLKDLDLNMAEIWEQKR
UniProt Q96P53: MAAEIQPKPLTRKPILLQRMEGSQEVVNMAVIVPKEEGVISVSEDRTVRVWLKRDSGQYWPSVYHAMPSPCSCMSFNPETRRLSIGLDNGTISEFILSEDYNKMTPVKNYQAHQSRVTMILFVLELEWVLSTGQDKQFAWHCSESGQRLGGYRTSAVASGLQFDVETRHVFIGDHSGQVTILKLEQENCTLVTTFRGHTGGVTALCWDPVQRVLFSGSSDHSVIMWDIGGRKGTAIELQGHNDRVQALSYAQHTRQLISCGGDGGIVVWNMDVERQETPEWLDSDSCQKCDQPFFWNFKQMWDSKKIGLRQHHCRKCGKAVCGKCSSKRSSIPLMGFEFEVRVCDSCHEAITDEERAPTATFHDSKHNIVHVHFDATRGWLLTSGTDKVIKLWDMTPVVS
UniProt P57081: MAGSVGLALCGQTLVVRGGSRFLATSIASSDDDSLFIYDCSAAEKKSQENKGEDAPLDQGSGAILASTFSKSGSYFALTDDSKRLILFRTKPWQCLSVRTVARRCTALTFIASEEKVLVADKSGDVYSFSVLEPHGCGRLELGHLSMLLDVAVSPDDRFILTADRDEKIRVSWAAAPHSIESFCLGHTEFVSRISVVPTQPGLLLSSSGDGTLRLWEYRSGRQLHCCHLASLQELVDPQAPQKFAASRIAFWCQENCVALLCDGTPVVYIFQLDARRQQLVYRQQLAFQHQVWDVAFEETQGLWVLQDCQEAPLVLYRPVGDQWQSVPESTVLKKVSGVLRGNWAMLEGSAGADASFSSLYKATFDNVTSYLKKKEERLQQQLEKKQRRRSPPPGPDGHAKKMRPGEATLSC

Legend:
Test in all cases: log2 fold change, soluble protein after heating vs DMSO (PISA); higher = thermal stabilisation; K562 cells, 10 uM, 30 min; active = over 0.2 and 3.5 SD of the protein, either way, in both replicates (recomputed)
erlotinib = compound: C#Cc1cccc(Nc2ncnc3cc(OCCOC)c(OCCOC)cc23)c1 [erlotinib]
Procedure, shortened: (§1)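 K562 cells at 2×10^6 cells/mL were given 10 μM compound for 30 min. Aliquots then went through 3 min of heating across 48°C-58°C, were pooled, and were extracted in PBS with 0.5% NP-40 at 4°C, and the supernatant after 21,000xg for 90 min was quantified by TMTpro 16plex LC-MS/MS with channel sums equalised. Thermal stability relative to control samples, from duplicates, is given as log2 fold change.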

[1] = compound: C/C(=N\NC(=O)C1=CC(=CC=C1)S(=O)(=O)N2CCOCC2)/C3=C(C=CC(=C3)Cl)O
Procedure, shortened: as §1

[2] = compound: C1=CC(=C(C=C1Cl)C2=NC3=NC=CN=C3C(=N2)NC4=CC=NC=C4)F
Procedure, shortened: as §1

[3] = compound: C1=CC(=CC=C1C2=NC3=C(N2)C=C(C=C3)C(=O)N)OC4=CC=C(C=C4)Cl
Procedure, shortened: as §1

[4] = compound: C1=CC2=C(C=CC(=C2)/C=C\3/C(=O)NC(=NCC4=CC=CS4)S3)N=C1
Procedure, shortened: as §1

[5] = compound: C1=CC2=NC=CN=C2C=C1/C=C/3\C(=O)NC(=O)S3
Procedure, shortened: as §1

[6] = compound: C1=CC=C(C=C1)C2=NC(=C(N2)C3=CC=NC=C3)C4=CC(=C(C=C4)Cl)O
Procedure, shortened: as §1

[7] = compound: C1=CC=C2C(=C1)C3=NNC4=CC=CC(=C43)C2=O
Procedure, shortened: as §1

[8] = compound: C1CCN(C1)C(=O)NC2=CC=CC(=C2)NC3=NC=C(C(=N3)NCCC4=CN=CN4)Br
Procedure, shortened: as §1

[9] = compound: C1CN(CCC1(CC2=CC=C(C=C2)Cl)N)C3=NC=NC4=C3C=CN4
Procedure, shortened: as §1

Measured: log2 fold change

VWA5A (UniProt O00534)
inactive: erlotinib 0.066 | [1] -0.007 | [2] 0.03 | [3] 0.045 | [4] 0.008 | [5] 0.002 | [6] -0.049 | [7] -0.008 | [8] 0.069 | [9] -0.021

VMA21 isoform 2 (UniProt Q3ZAQ7)
inactive: erlotinib 0.037 | [1] 0.117 | [2] 0.051 | [3] 0.114 | [4] -0.174 | [5] 0.061 | [7] 0.043 | [8] 0.014 | [9] 0.136

WIPF1 isoform 3 (UniProt O43516)
inactive: erlotinib -0.101 | [1] 0.061 | [3] 0.044 | [4] 0.06 | [5] 0.027 | [6] -0.02 | [7] -0.074 | [8] -0.317 | [9] 0.348

WDSUB1 (UniProt Q8N9V3)
inactive: erlotinib 0.035 | [1] -0.009 | [2] 0.021 | [3] 0.028 | [4] 0.035 | [5] 0.017 | [6] -0.031 | [7] -0.003 | [8] -0.029 | [9] -0.02

VIPAS39 (UniProt Q9H9C1)
inactive: erlotinib 0.04 | [1] 0.256 | [3] -0.062 | [4] -0.038 | [5] 0.027 | [7] 0.098 | [8] -0.208 | [9] -0.144

WDR73 (UniProt Q6P4I2)
inactive: erlotinib 0.027 | [1] 0.068 | [2] 0.069 | [3] 0.017 | [4] 0.05 | [5] -0.004 | [6] -0.011 | [7] -0.011 | [8] 0.013 | [9] 0.039

VKORC1L1, A0A3B3ISV4
inactive: erlotinib -0.043 | [1] -0.009 | [2] 0.027 | [3] -0.008 | [4] 0.036 | [5] 0.01 | [6] 0.097 | [7] 0.031 | [8] -0.038 | [9] 0.042

VEGFA (UniProt H0YBI8)
inactive: erlotinib 0.044 | [1] 0.063 | [3] -0.03 | [4] -0.011 | [5] 0.008 | [6] 0.003 | [7] -0.173 | [8] 0.019 | [9] 0.056

WDR24 (UniProt Q96S15)
inactive: erlotinib 0.003 | [1] 0.026 | [2] 0.026 | [3] -0.08 | [4] -0.14 | [6] -0.142 | [7] -0.09 | [8] -0.001 | [9] -0.268

VPS33B (UniProt Q9H267)
inactive: erlotinib 0.108 | [1] 0.093 | [2] -0.039 | [3] -0.07 | [4] 0.073 | [5] 0.053 | [6] 0.019 | [7] 0.044 | [8] -0.076 | [9] -0.102

WARS (UniProt P23381)
inactive: erlotinib 0.02 | [1] -0.031 | [2] 0.023 | [3] -0.021 | [4] -0.023 | [5] 0.013 | [6] 0.04 | [7] 0.011 | [8] 0.011 | [9] 0.021

WTAP (UniProt Q15007)
inactive: erlotinib -0.156 | [1] 0.134 | [3] 0.035 | [4] -0.232 | [7] -0.111

WDR91 (UniProt A4D1P6)
inactive: [1] 0.15 | [2] -0.071 | [4] 0.018 | [5] 0.081 | [6] 0.2 | [7] -0.058 | [8] 0.118 | [9] -0.365

WWOX (UniProt Q9NZC7)
inactive: erlotinib 0.167 | [3] -0.14 | [8] -0.389 | [9] 0.077

VDAC2 (UniProt Q5JSD2)
inactive: [2] 0.035 | [5] 0.092

WARS1 (UniProt G3V3P2)
inactive: [5] 0.155

WDR19 (UniProt Q8NEZ3)
inactive: [1] -0.16 | [4] 0.125 | [5] 0.041 | [6] 0.048 | [7] -0.15 | [8] -0.099 | [9] 0.2

WDR83 (UniProt Q9BRX9)
inactive: erlotinib -0.323 | [3] 0.049

WDR46, A0A0G2JJL1
inactive: erlotinib -0.273 | [2] -0.741 | [3] -0.011 | [5] 0.027 | [8] 0.279 | [9] 0.114

WIPI2 isoform 6 (UniProt Q9Y4P8)
inactive: [1] -0.003 | [4] 0.09 | [5] 0.003 | [7] -0.108

WARS1 (UniProt G3V5U1)
inactive: [2] -0.233 | [5] 0.187

WDR81 (UniProt Q562E7)
inactive: [1] -0.058 | [2] -0.431 | [4] -0.094 | [5] 0.045 | [6] 0.074 | [7] -0.189 | [8] 0.231 | [9] -0.098

VPS13A isoform 4 (UniProt Q96RL7)
inactive: erlotinib 0.073 | [3] 0.03 | [6] 0.013 | [8] -0.099 | [9] 0.075

VDAC2 (UniProt Q5JSD1)
inactive: [2] 0.059 | [5] 0.155 | [6] -0.139

3 entries picked at random from those above:
WIPI2 isoform 6 (UniProt Q9Y4P8)
inactive: [1] -0.003 | [4] 0.09 | [5] 0.003 | [7] -0.108

VDAC2 (UniProt Q5JSD1)
inactive: [2] 0.059 | [5] 0.155 | [6] -0.139

WARS1 (UniProt G3V5U1)
inactive: [2] -0.233 | [5] 0.187

(next part)

XAB2 (UniProt Q9HCS7)
inactive: [2] -0.223 | [6] 0.075

WBP1L isoform 2 (UniProt Q9NX94)
inactive: [5] 0.254

VLDLR (UniProt P98155)
inactive: [2] 0.037 | [8] -0.085 | [9] 0

VSIR (UniProt Q9H7M9)
inactive: erlotinib -0.002 | [2] -0.027 | [3] -0.045 | [5] 0.127 | [6] -0.061

VGF (UniProt O15240)
inactive: erlotinib -0.011 | [3] 0.116 | [5] -0.019

VIL1 (UniProt P09327)
inactive: [2] -0.072 | [5] -0.057

VIRMA (UniProt Q69YN4)
inactive: erlotinib 0.031 | [2] -0.099 | [3] -0.005 | [5] 0.181 | [6] -0.015

WWP2 (UniProt O00308)
inactive: [2] -0.238

WARS1 (UniProt G3V227)
inactive: [1] -0.08 | [2] 0.018 | [4] -0.159 | [5] 0.093 | [7] -0.178 | [8] 0.098 | [9] -0.089

WARS1 (UniProt G3V339)
inactive: [2] -0.023

VPS35, A0A1W2PP10
inactive: [2] 0.099 | [5] -0.001 | [8] -0.209 | [9] -0.11

VWF (UniProt P04275)
inactive: [1] -0.041 | [4] 0.033 | [7] 0.074

WDR76 (UniProt Q9H967)
inactive: [1] -0.03 | [2] -0.418 | [4] -0.152 | [7] 0.034

WSB1 (UniProt Q9Y6I7)
inactive: [2] 0.067

WDR75 (UniProt Q8IWA0)
inactive: [1] -0.256 | [2] -0.592 | [4] 0.306 | [5] 0.091 | [6] -0.063 | [7] 0.042 | [8] -0.193 | [9] 0.021

VCPKMT (UniProt Q9H867)
inactive: [1] 0.151 | [4] 0.202 | [7] 0.199 | [8] -0.066 | [9] 0.154

VPS54 (UniProt Q9P1Q0)
inactive: erlotinib 0.089 | [1] 0.138 | [3] -0.149 | [4] -0.132 | [7] 0.026 | [8] -0.074 | [9] 0.144

WDFY2 (UniProt Q96P53)
inactive: erlotinib 0.031 | [1] -0.025 | [3] 0.072 | [4] -0.164 | [7] -0.077 | [8] -0.079 | [9] 0.098

VHL (UniProt P40337)
inactive: [1] 0.118 | [4] -0.039 | [6] -0.002 | [7] 0.006

WNK4 (UniProt Q96J92)
inactive: [1] -0.032 | [2] -0.036 | [4] 0.011 | [7] -0.049 | [8] -0.023 | [9] -0.034

WDR4 isoform 3 (UniProt P57081)
inactive: [2] -0.144 | [5] 0.045
